PubChem BioAssay AID1224826 | NIAID | 2016
Here is one part, drawn at random, of about 17,000 deposited reagents. About 1,110 of them (6.6%) count as active. 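Active means lowered or raised reporter signal; replicate intensities are raw and not normalised per plate.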 Unmarked entries are inactive. Not all columns of the deposit are shown.

Aim: 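Genes that change LPS-induced Tnf promoter activity in mouse macrophages when knocked down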 (primary screen)
Cell system: RAW264.7 G9 macrophages from mouse bearing reporters for p65 (GFP) and the Tnf promoter (mCherry)
Reagent: siRNA pool against mouse genes, 100 nM
Timing: 16 h of LPS stimulation, after 2 days of siRNA transfection
Challenge: bacterial lipopolysaccharide (Salmonella minnesota R595), 10 ng/ml
Measured: 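Nuclear mCherry signal of the Tnf promoter reporter measured by imaging after background removal, scaled to each plate median and turned into robust z-scores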
Reading the numbers: Tnf reporter robust z-score: higher = stronger Tnf promoter reporter signal after LPS; Tnf reporter intensity: higher = stronger Tnf promoter reporter signal
Hit rule: 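a well counts as active at a score of -1.3 or below (Tlr4 knock-down control median) or above 3 (raised signal); controls and wells holding fewer than 50 cells are excluded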
Meaning of the calls: active = Tnf reporter clearly lowered or raised; inactive = no clear change in Tnf reporter

| Gene | Tnf reporter robust z-score | fewer than 50 cells in well | Tnf reporter intensity, replicate 1 |
| --- | --- | --- | --- |
| Ank2 | 0.02 | enough cells in well | 248 |
| Rdh16 | 0.36 | enough cells in well | 145 |
| Asrgl1 | 0.21 | enough cells in well | 176 |
| Atpaf2 | -0.82 | enough cells in well | 141 |
| Ear2 | -0.25 | enough cells in well | 155 |
| Zfp184 | – | fewer than 50 cells per well; well left out of calls | 138 |
| Fam180a | – | fewer than 50 cells per well; well left out of calls | 24.3 |
| Tnfrsf19 | -0.73 | enough cells in well | 183 |
| Gimap9 | 0.39 | enough cells in well | 161 |
| Eef1e1 | -1.28 | enough cells in well | 103 |
| Pik3r4 | -0.26 | enough cells in well | 206 |

Ordered by “Tnf reporter robust z-score” (lowest first): some entries from above
| Gene | Tnf reporter robust z-score | fewer than 50 cells in well | Tnf reporter intensity, replicate 1 |
| --- | --- | --- | --- |
| Ank2 | 0.02 | enough cells in well | 248 |
| Asrgl1 | 0.21 | enough cells in well | 176 |
| Rdh16 | 0.36 | enough cells in well | 145 |

The listing continues.
| Gene | Tnf reporter robust z-score | fewer than 50 cells in well | Tnf reporter intensity, replicate 1 |
| --- | --- | --- | --- |
| Tfap2a | -0.64 | enough cells in well | 216 |
| Or7e174 | – | fewer than 50 cells per well; well left out of calls | 44.8 |
| Tmem65 | – | fewer than 50 cells per well; well left out of calls | 175 |
| Slc12a6 | 0.11 | enough cells in well | 213 |
| Tfec | -0.55 | enough cells in well | 200 |
| Tiam2 | 0.05 | enough cells in well | 119 |
| Clcn1 | -0.05 | enough cells in well | 202 |
| Tmem94 | – | fewer than 50 cells per well; well left out of calls | 96.7 |
| Phxr1 | -0.3 | enough cells in well | 150 |
| Pramel27 | 0.82 | enough cells in well | 239 |
| Fcrl2 | 0.11 | enough cells in well | 183 |
| Hbb-b2 | 1.18 | enough cells in well | 465 |
| Glod4 | -0.25 | enough cells in well | 228 |
